Source: PMC4941297
No constants are given. Whether binding was seen depends on the method and setting. Binding seen in cells or lysates may run through a third protein. Some entries that bind do so weakly or less than the wild type.

By UniProt entry, the sequences of proteins in these tests, tags left out. Where a name states a change or a piece, a line headed by the entry shows the natural chain unless it says otherwise. Chains listed by the source or under a name are the forms on record and can include a tag or linker.
MDM2/HDM2 (Q00987-11, form named): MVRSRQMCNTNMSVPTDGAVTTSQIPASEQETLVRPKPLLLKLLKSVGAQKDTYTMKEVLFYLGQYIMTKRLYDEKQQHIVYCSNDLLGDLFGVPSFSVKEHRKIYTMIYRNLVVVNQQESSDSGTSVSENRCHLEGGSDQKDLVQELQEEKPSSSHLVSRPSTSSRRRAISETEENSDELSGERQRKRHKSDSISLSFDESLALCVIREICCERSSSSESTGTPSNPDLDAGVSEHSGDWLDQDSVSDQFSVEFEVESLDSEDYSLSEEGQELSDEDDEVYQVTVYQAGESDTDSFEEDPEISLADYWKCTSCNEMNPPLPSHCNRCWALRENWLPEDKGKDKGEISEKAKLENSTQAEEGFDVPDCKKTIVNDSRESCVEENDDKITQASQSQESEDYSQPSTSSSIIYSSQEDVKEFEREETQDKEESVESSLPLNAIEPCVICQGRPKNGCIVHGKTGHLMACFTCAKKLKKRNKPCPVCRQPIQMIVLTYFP
UniProt P03372: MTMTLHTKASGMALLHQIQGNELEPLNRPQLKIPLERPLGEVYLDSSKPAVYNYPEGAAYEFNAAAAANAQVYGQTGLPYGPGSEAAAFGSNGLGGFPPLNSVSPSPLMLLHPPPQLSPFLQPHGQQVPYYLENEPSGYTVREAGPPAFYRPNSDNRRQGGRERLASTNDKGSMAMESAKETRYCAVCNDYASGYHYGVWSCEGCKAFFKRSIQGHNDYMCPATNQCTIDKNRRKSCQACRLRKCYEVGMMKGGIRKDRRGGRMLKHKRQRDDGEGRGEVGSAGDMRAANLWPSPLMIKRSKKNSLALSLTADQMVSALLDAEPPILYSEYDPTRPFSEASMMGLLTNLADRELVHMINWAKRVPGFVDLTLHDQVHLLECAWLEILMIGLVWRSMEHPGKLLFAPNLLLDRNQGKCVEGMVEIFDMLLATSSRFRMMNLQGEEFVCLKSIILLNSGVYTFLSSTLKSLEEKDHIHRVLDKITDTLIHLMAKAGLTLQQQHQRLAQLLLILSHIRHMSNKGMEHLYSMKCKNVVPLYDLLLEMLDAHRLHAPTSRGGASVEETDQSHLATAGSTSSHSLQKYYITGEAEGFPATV

Assays:
Assay in all cases: co-IP; endogenous proteins in ZR-75-1 and MCF7 lysates (20 mM Tris pH 8.0, 150 mM NaCl, 5 mM MgCl2, 0.5% NP40); 2.5 mg precleared lysate with 6 μg antibody overnight at 4°C, protein G agarose; western blot
[1] = biological target: MDM2/HDM2 (human (endogenous in ZR-75-1 and MCF7)) (UniProt Q00987)
[2] = biological target: T1, MDM4/MDMX/HDMX (human (endogenous in ZR-75-1, MCF7 and patient breast tumor)) (UniProt O15151)
T1 sequence: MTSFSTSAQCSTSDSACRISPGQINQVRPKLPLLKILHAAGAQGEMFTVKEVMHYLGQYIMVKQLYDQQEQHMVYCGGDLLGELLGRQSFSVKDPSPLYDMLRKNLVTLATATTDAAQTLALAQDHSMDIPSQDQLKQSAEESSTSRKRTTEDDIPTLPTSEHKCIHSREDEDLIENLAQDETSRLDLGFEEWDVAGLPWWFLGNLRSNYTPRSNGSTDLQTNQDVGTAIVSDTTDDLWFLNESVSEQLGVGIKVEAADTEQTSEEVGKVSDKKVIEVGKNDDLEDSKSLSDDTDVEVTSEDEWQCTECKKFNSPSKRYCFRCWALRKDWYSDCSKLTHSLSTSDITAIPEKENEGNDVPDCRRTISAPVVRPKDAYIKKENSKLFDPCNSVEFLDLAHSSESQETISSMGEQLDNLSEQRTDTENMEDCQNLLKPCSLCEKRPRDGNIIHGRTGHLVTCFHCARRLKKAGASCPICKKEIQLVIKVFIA

[3] = biological target: Estrogen receptor alpha/estrogen receptor 1 (human (endogenous in ZR-75-1, MCF7 and patient breast tumor)) (UniProt P03372)

binding [1]	binding [2]	binding [3]	Substance
binds	binds	–	Estrogen receptor alpha/estrogen receptor 1 (from UniProt P03372-1 1-595)
–	–	binds	MDM2/HDM2 (from UniProt Q00987-11 1-497)
